Experimental findings from publication doi:10.1101/2023.12.21.572759 are described below.

For test [1], the target named is T1, mouse ASIC1a K105C/N414K (mouse) (UniProt Q6NXK8).
T1 sequence (chain, Alexa Fluor 488 C5-maleimide on C105 (K105C), in the VCF experiments): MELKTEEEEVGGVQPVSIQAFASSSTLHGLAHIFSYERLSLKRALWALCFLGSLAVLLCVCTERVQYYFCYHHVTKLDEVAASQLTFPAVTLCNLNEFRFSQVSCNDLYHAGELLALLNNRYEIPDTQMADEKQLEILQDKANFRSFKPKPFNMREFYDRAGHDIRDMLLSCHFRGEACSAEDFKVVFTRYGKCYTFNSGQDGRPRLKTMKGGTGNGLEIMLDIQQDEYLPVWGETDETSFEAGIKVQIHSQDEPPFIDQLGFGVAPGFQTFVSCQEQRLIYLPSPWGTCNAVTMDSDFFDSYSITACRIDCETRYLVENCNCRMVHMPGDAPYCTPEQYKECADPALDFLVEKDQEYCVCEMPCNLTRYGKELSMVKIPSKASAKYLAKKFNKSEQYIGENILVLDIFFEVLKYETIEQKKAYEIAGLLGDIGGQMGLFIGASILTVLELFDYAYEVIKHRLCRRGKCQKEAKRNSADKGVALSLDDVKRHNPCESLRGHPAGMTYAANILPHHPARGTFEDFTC
The experiment in a line: voltage-clamp fluorometry.

The target of test [2] is T1, mouse ASIC1a K105C/N414K (mouse). The experiment in a line: voltage-clamp fluorometry. The source holds these as a separate data set.

Read-outs that look alike come from different tables or passages of the source. These are yes or no findings as the source states them, for the method shown. Some entries that bind do so weakly or less than the wild type.

With “Big dynorphin (from UniProt P01213 207-238) (peptide)”, the binding result in test [1] is on record as “binds”.

B1: PcTx1 (peptide, UniProt P60514 1-40)
peptide: EDCIPKWKGCVNRHGDCCEGLECWKRRRSFEVCVPKTPKT
B1: the binding result in test [2] was “binds”.
